## Primary screen of a compound library

Protein sequences, listed by entry. Tags and fused reporters are not part of them.
UniProt I6X8D2, whole entry: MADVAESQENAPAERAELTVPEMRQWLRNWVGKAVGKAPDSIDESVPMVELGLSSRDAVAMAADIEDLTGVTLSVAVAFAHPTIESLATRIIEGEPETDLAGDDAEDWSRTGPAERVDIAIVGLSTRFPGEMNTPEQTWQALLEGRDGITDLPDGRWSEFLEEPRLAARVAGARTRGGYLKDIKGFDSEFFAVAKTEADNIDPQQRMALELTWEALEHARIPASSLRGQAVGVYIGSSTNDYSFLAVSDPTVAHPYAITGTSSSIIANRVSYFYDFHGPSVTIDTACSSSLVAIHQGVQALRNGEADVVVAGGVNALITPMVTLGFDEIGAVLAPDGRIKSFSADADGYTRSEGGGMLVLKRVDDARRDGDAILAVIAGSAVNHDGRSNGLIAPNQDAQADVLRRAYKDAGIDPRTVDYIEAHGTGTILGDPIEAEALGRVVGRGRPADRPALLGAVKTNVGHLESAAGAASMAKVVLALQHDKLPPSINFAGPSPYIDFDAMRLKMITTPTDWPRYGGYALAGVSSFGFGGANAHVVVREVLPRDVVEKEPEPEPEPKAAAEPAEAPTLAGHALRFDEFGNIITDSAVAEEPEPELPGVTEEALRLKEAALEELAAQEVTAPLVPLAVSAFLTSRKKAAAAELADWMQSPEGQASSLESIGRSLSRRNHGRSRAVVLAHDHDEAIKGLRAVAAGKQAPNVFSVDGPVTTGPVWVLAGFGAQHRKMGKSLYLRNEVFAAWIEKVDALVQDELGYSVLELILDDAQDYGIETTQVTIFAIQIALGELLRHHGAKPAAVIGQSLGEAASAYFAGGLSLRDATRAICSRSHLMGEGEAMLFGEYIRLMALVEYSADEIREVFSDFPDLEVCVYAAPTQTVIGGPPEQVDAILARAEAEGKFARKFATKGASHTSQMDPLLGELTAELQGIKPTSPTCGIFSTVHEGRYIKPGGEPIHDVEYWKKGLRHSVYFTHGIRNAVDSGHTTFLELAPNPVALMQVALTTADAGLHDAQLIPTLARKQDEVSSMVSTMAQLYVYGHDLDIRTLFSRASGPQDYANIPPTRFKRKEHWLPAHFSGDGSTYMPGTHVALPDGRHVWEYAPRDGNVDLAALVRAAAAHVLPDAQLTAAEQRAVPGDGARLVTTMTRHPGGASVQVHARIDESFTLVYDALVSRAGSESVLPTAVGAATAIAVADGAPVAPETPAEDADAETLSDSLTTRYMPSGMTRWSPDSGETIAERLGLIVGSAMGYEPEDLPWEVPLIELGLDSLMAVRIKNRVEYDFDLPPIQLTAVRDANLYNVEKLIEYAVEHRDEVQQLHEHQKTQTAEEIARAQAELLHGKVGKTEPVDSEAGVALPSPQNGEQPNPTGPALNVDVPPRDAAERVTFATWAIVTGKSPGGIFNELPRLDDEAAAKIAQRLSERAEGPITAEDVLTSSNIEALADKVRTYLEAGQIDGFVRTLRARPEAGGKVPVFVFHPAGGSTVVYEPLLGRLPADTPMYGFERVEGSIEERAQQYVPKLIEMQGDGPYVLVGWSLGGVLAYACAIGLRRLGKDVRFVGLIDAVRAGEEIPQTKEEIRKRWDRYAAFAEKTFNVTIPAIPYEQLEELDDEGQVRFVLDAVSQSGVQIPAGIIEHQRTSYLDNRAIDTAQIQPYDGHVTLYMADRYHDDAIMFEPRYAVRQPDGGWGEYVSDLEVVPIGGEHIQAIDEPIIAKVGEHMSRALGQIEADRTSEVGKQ
UniProt P9WNZ1, whole entry: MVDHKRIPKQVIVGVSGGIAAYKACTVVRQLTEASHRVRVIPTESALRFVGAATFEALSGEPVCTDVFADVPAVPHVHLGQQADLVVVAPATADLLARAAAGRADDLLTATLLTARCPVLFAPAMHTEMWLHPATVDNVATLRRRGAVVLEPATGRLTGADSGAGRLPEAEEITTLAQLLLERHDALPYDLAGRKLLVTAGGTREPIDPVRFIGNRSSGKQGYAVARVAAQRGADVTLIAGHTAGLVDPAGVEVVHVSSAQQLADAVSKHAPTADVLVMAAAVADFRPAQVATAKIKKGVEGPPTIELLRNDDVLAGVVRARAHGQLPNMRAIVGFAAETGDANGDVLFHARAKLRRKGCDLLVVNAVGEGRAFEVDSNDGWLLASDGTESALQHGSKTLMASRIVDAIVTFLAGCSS
UniProt P9WPC5, whole entry: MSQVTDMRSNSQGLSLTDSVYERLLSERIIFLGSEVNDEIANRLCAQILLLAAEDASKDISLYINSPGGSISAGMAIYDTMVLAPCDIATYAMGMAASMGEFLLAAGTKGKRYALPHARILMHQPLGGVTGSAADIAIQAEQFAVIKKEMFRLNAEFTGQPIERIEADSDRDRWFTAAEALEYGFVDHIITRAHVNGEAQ
UniProt P9WPC3, whole entry partner: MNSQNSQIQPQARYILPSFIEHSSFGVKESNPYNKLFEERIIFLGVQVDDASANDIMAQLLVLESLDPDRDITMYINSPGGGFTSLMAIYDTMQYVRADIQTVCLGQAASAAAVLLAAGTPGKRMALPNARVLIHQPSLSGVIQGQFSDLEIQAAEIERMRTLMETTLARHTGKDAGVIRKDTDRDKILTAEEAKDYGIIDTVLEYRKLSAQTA
UniProt P9WFT3, whole entry: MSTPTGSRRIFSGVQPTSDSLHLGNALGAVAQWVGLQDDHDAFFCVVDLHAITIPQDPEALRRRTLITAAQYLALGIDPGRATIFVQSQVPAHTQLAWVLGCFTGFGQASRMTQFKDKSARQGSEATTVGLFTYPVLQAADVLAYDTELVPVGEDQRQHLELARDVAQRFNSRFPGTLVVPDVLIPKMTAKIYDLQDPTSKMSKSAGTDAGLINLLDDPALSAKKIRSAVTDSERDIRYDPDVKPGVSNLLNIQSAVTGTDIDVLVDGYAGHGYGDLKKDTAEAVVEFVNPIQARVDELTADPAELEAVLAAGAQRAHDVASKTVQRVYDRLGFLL

The values are deposited in ChEMBL (CHEMBL3988442, “University of Dundee, Small-Polar-MMV Screening Library” (2021)).

Pks13 thioesterase: 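Enzyme assay of the thioesterase domain of polyketide synthase 13; the read-out is not stated. Target: Polyketide synthase Pks13, Mycobacterium tuberculosis (UniProt I6X8D2). Concentration: 30 µM. The record gives no direction; the compounds picked for IC50 retests had high values, so higher reads as stronger inhibition. Of about 67,000 compounds tested this way, about 300 (0.46%) reached 50% or more in at least one test.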
Toxoplasma: 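Assay of Toxoplasma gondii numbers, read through their beta-galactosidase reporter with a colour substrate. Concentration: 10 µM. Higher reads as fewer parasites (inferred from which compounds were picked for retests). About 67,000 compounds were tested under these conditions; 0.38% (about 260) showed 50% or more at least once.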
CoaBC: 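Enzyme assay of CoaBC with a phosphate dye (Biomol Green) read at 650 nm. Target: Coenzyme A biosynthesis protein CoaBC, Mycobacterium tuberculosis (UniProt P9WNZ1). Concentration: 30 µM. Higher reads as stronger inhibition, judged from the few compounds that gave an IC50. Most strong results did not repeat in a second test. Size under these conditions: about 67,000 compounds, about 40 of them at 50% or above in at least one test.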
ClpP1P2: 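ClpP1P2, Mycobacterium tuberculosis (UniProt P9WPC5 and UniProt P9WPC3). Protease assay of ClpP1P2, read by the AMC dye that it sets free. Compounds at 50 µM. Higher reads as stronger inhibition, judged from the few compounds that gave an IC50. Most other retested compounds had strongly negative values. About 69,000 compounds were tested under these conditions; 0.015% (about 10) showed 50% or more at least once.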
Leishmania in macrophages: 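Cell assay of Leishmania donovani living inside macrophages; the read-out is not stated. Tested at 30 µM. Higher reads as stronger inhibition (inferred: compounds with an IC50 in retests scored well above the rest). Of about 69,000 compounds tested this way, about 1,000 (1.5%) reached 50% or more in at least one test.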
MtTrpRS: 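Tryptophan-tRNA ligase, Mycobacterium tuberculosis (UniProt P9WFT3). Enzyme assay of tryptophanyl-tRNA synthetase; the read-out is not stated. Compounds at 10 µM. Higher most likely means stronger inhibition; the record gives no direction and few retests gave an IC50. About 65,000 compounds were tested under these conditions; 0.098% (about 64) showed 50% or more at least once.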

Values are the deposited “Percent Effect”, in %.
How 0% and 100% were set is not recorded. Most values in the screen are low, and negative values occur.
Compounds were drawn at random from those tested, without regard to their results.
Two or more numbers in one place are separate tests of the same structure; such repeats can differ widely.
A dash means the value is not listed here; it may have been measured.

compound	Pks13 thioesterase	Toxoplasma	CoaBC	ClpP1P2	Leishmania in macrophages	MtTrpRS
COCCN1CCC(CNC(=O)c2cc(C)cc(C)c2)C1 (centres unmarked)	-29.04%	-9.981%	1.836%	1.304%	12.29%	2.632%
CN1CCOC2(CCCN(C(=O)C3CCCCC3)C2)C1.O=C(O)C(F)(F)F (centres unmarked)	-	-33.63%	-	-	-1.912%	-
Cc1cc(C[C@@H]2CCC[C@H]2NCc2c[nH]nc2-c2ccccc2)on1	-17.35%	-	1.214%	-4.355%	-	-
O=C(CCc1ccsc1)N1CCC(N2CCNC2=O)CC1	-11.2%	17.87%	0.5222%	-46.12%	-11.49%	-1.505%
O=S(=O)(Cc1cccc(Cl)c1)CC(O)Cn1cccn1 (centres unmarked)	-12.23%	-5.368%	-6.762%	1.409%	15.16%	-1.083%
[H][C@@]12CCN(C(=O)Cc3cccs3)[C@@]1([H])CC(=O)N2CC1CC1	-	-11.5%	-	-	5.732%	-
CCNC(=O)C1CCN(c2cc(-c3ccccc3)nc3ccnn23)C1 (centres unmarked)	-18.53%	15.33%	-2.616%	-41.83%	-8.318%	-4.19%
Cc1nc(C2CCCN2Cc2nccn2CC(F)(F)F)no1 (centres unmarked)	-0.5301%	3.482%	3.182%	-9.066%	22.35%	-1.557%
CNS(=O)(=O)c1ccc(CNC(=O)NCC2CCCO2)cc1 (centres unmarked)	-17.23%	-39.52%	8.974%	8.544%	-26.72%	0.2346%
CN(C)C(=O)c1ccc(C2CCCN2C(=O)c2ccccc2N(C)C)s1 (centres unmarked)	-30.77%	11.56%	1.901%	-7.424%	21.44%	-4.241%
O=C(O)C(F)(F)F.O=C(O)C(F)(F)F.[H][C@@]12COC[C@]1(CNS(=O)(=O)CC)CN(Cc1ccccn1)C2	-	-0.3725%	-	-	13.53%	-
Cc1cccc(NC(=O)c2ccc(-n3cncn3)nn2)n1	-14.1%	-4.376%	1.48%	-5.777%	-14.05% & 1.67%	-5.243%
COCCO[C@@H]1CCN(Cc2csc(C)n2)[C@H]1Cc1ccccc1	-21.49%	-	1.322%	-10.12%	-	-0.3353%
CCCN1CCCn2nc(CNS(=O)(=O)c3ccc(F)cc3)cc2C1	-37.08%	7.156%	4.315%	-9.517%	22.27%	-0.581%
O=C1CC2(CCNCC2)C(=O)N1c1cccc(F)c1	-21.7%	-	3.732%	-5.091%	-	1.017%
CC(C)n1ccnc1C1CCN(C(=O)c2ccccc2)CC1	-4.198%	-3.493%	4.825%	-14.57%	4.544%	1.587%
CCn1cc(Cl)c(C(=O)NCCCN(C)C)n1	-20.01%	12.46%	7.407% & 49.88%	-1.011%	47.12%	-2.72%
c1ccc(-c2nc(CNC3CCCN(c4cccnn4)C3)no2)cc1 (centres unmarked)	-20.29%	-4.26%	10.84%	5.583%	5.973%	4.009%
Cc1ccc(N2CCCC(N(C)c3nn4cc(C)nc4s3)C2)nn1 (centres unmarked)	-20.03%	1.474%	7.17%	3.672%	10.92%	-1.769%
O=C(Nc1ccccc1-c1ccccc1)NC1CCC2(C1)OCCO2 (centres unmarked)	10.28%	-7.29%	-13.02%	-4.796%	11.32%	0.7282%
CS(=O)(=O)NCC1CCCCN1Cc1cccc(C#N)c1 (centres unmarked)	15.45%	-10.45%	3.121%	5.849%	9.487%	3.44%
Cc1cc(N2CCN(C(=O)C(C)n3ccnc3C(C)C)CC2)cc(C)n1 (centres unmarked)	-	-1.983%	2.561%	-1.729%	12.35%	3.311%
CCCN1CCC(c2nc3ccc(NCc4ccccc4)cn3n2)CC1.O=C(O)C(F)(F)F.O=C(O)C(F)(F)F	-	13.34%	-	-	41.87%	-
CCC(C)CNC(=O)[C@@H]1CCCN1c1nccc(Nc2ccccc2)n1 (some centres unmarked)	15.31%	11.32%	2.427%	-17.17%	19.46%	-
O=C(O)C(F)(F)F.[H][C@]12CCN(S(=O)(=O)C3CC3)[C@@]1([H])CCC(=O)N2CCN1CCCC1	-	21.88%	-	-	26.19%	-
[H][C@]12CC[C@]([H])(CN(CC(=O)N(C)C)C1)N(Cc1cccc(Cl)c1Cl)C2	-	-10.2%	-	-	42.09%	-
Cc1cc(-c2nc(-c3c(C)ncc4c3CCNC4)no2)nc(C)n1	-33.39%	-4.135%	4.342%	-12.28%	-17.78%	0.4944%
COc1cc2[nH]c(=O)c(CN3CCCC(CO)C3)cc2c(OC)c1OC (centres unmarked)	-1.145%	-8.135%	0.4969%	-7.491%	33.03%	0.9909%
NCC1(c2cccc(Br)c2)CCOCC1	-6.699%	-	-2.692%	10.72%	-	-1.689%
CCN(Cc1nc2c(cnn2C)c(=O)[nH]1)Cc1ccccc1Cl	-3.551%	28.58%	3.916%	-39.9%	29.34%	-5.893%
CC(C)c1nc(C2CCCN2CC(=O)Nc2nncs2)no1 (centres unmarked)	-12.5%	0.6303%	8.735%	3.789%	8.077%	-0.5912%
Cc1ncoc1C(=O)N1CCCC(c2ccc3c(N)nn(C)c3n2)C1 (centres unmarked)	12.78%	0.6165%	9.443%	-7.892%	29.56%	-3.068%
Cc1ccn(CCNc2ncnc3c2CCN(S(C)(=O)=O)CC3)n1	-4.024%	4.98%	-0.5115%	4.047%	16.75%	2.047%
O=C(c1cc(F)cc(F)c1)N1CCC(O)(C(F)(F)F)CC1	-22.96%	-14.88%	13.13%	-6.899%	-14.2%	1.806%
CC(C)c1nc(-c2ccnc(N3CCNCC3)n2)no1.Cl.Cl	-	-7.166%	-	-	-4.065%	-
COc1ccccc1C(NC(=O)CN(C)C(C)C)c1noc(C)n1 (centres unmarked)	0.9876%	20.47%	-0.6135%	-1.495%	5.404%	1.234%
COc1ccc(C2=NOC(CC#N)C2)cc1 (centres unmarked)	-5.606%	5.584%	2.296%	-18.8%	6.759%	-0.1273%
O=C1COC2(CCN(Cc3ccoc3)CC2)CN1c1ccsc1	-26.91%	-	-1.036%	11.74%	-	2.819%
COCCNC(=O)[C@@H]1C[C@H]2[C@H](CCN2c2cc(OC)ncn2)O1	-31.15%	-	-2.589%	-21.4%	-	-8.599%
O=C(O)[C@@H]1CCN(C(=O)c2cscn2)[C@@H]1c1ccc(F)cc1	-5.552%	-	0%	8.075%	21.45%	-5.91%
CCNc1cc2c(nn1)CCN(C(=O)c1cc3ccccc3[nH]c1=O)C2	0.5183%	-2.761%	-2.419%	13.56%	22.94%	2.542%
CN1CCCN(C(=O)c2nc3c(s2)CCCN3CC2CC2)CC1	-24.2%	-2.212%	-10.04%	-8.33%	25.62%	-1.281%
O=c1cc(Cn2cncn2)nc2n1CCCN(Cc1ccco1)C2	-12.03%	4.124%	-2.664%	4.123%	21.78%	-4.026%
Cc1ccc(Oc2ncccc2CNC2CCOCC2)cn1	-30.68%	0.7536%	7.296%	-1.148%	9.333%	-1.495%
CC(=O)N1CCOCC2(CCCNC2)C1 (centres unmarked)	-31.59%	-1.72%	7.125%	-6.808%	1.556%	-5.416%
COCC1CN(C(=O)c2ccco2)Cc2cn(C)nc21 (centres unmarked)	-8.46%	-	-6.526%	-5.091%	-	-3.586%
COc1ccc(CNC(C)c2ccc(Cl)cc2)c(OC)c1OC (centres unmarked)	-22.34%	1.279%	-31.4%	-2.681%	11.12%	1.521%
Cc1cnc(CN2CCN(c3nc(C)cs3)C(C)C2)cn1 (centres unmarked)	9.105%	1.358%	3.418%	-1.743%	-40.38%	-0.6798%
CCc1nc(N2CCOCC2)ncc1C(=O)NC(c1cccs1)C(C)C (centres unmarked)	8.365%	14.37%	-21.72%	-18.99%	-20.57%	-3.763%
CC(C)(C)c1nc(CC(=O)NCCC(=O)Nc2ccncc2)cs1	-10.39%	-1.951%	5.987%	-4.722%	-6.49%	3.579%
CN(Cc1nnc(C2CC2)o1)Cc1ccccc1-c1ccccc1	-6.918%	3.167%	-11.19%	-13.12%	12.07%	-1.876%
Cn1ncc(Cl)c1C(=O)NCCN1CCC(O)(c2ccc(F)cc2)CC1	3.357%	11.85%	-1.233%	-6.561%	-26.86%	-6.464%
CCc1nc2n(n1)CC(NCc1ncc(-c3ccccc3)o1)CC2 (centres unmarked)	107.8%	-8.977%	6.845%	3.033%	8.257%	1.267%
Cc1cccc(OCCSCCn2nc3ccccn3c2=O)c1	10.49%	-3.474%	7.311%	-5.121%	-7.335%	0.6159%
FC(F)(F)Cn1ccnc1CNCCn1cccn1	-15.65%	2.147%	1.446%	-7.593%	1.613%	-8.583%
[H][C@@]12C[C@H](C)O[C@]1([H])CCN(C(=O)CCOC)C2	-	7.637%	-	-	16.38%	-
Cc1cnn(C2CCCN(C(=O)c3ccc(N(C)C)nn3)C2)c1 (centres unmarked)	-3.922%	2.118%	2.892%	-2.272%	-14.65%	-2.798%
NC(=O)CC1CC2(CCNCC2)c2cc(F)ccc21.O=C(O)C(F)(F)F (centres unmarked)	-	-92.41%	-	-	0.02882%	-
[H][C@@]12CCN(CCN3CCCC3)C[C@]1(C(=O)NCc1ccco1)CCO2	-	4.487%	-	-	32.83%	-
CN(C)c1ccc(C(=O)N2CCCC(n3cccn3)C2)cn1 (centres unmarked)	-34.91%	-34.54%	8.745%	-5.86%	-5.792%	15.25%